Experimental data published in publication PMC3561105, “A Quartet of PIF bHLH Factors Provides a Transcriptionally Centered Signaling Hub That Regulates Seedling Morphogenesis through Differential Expression-Patterning of Shared Target Genes in Arabidopsis”.
The exact form of at least one protein or probe is not confirmed. For some assays here: Negatives hold for the conditions tested. For some assays here: A weaker result is weaker than the reference pair of the same experiment. For some assays here: Protein sequences can lack the tags named with them.

Tests used:
[1] = molecular target: T1, GST-PIF3-Flag (Arabidopsis thaliana) (UniProt O80536); experiment: competition with a labelled probe; conditions: EMSA, EMSA: 100 ng protein, native 5% PAGE in ice-cold 0.5x TBE, binding buffer as cited, recombinant protein, protein details: N-term GST, label: none (competitor)
T1 sequence (looked up, limits assumed): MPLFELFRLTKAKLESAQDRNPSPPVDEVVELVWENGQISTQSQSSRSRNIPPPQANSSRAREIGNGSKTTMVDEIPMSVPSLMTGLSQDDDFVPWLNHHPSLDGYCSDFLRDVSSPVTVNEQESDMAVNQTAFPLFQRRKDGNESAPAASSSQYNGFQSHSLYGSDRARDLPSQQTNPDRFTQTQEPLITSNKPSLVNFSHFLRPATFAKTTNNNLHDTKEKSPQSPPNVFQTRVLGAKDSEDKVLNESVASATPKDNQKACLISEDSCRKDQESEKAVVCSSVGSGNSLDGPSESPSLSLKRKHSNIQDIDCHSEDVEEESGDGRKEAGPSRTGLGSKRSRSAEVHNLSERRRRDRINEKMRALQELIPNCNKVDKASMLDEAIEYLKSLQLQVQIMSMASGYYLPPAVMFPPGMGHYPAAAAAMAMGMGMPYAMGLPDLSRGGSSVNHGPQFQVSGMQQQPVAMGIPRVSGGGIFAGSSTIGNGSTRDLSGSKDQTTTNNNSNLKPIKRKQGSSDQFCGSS

[2] = tested on: GST; experiment: EMSA; conditions: EMSA: 100 ng protein, native 5% PAGE in ice-cold 0.5x TBE, binding buffer as cited; recombinant protein

Sequence | binding result ([1]; did not compete like WT) | other results
ACCATTAGCCCACGGGATCTTGGGCC (double strand) [PHYB mut] | binds more weakly | 
TCTTTCCGCTCACGTGGGCCTTTTGT (double strand) [PIL1a WT] |  | binding result [2]: no binding
TGAGGCCGCCCATGGGGACACGACTC (double strand) [IAA2 mut] | binds more weakly | 
AGGCCATAGCCATGGGCCTTCATGGGGTGGTTGGCC (double strand) [IBH1 mut] | binds more weakly | 
ATAGGAGAAGCCCATGCATGCCCATGCTACGAATGG (double strand) [AT4G30410 (bHLH159) mut] | binds more weakly | 
TCTTTCCGCTCACGGGGGCCTTTTGT (double strand) [PIL1a mut] | binds more weakly | 
GACCCATTAACACGGGGATCCATCACGGGCTGTCAGTTT (double strand) [RGA1 mut1 (both G-boxes)] |  | binding result ([1]; no efficient competition): binds more weakly
ACGCGGCATTCACGGGAAGTGCACGGGAACTTGGCCA (double strand) [PIL1b mut1 (both G-boxes)] |  | binding result ([1]; no efficient competition): binds more weakly
